From the supplement of paper PMC3334620
The full ranking holds about 33,000 sequences; the median of “E-score (-0.5 to 0.5)” is about -0.015, and the highest 2% start at about 0.3. Some of the results follow.

What follows are sequences tested against T1, Abf1 (UniProt P14164) (assay: PBM E-score (8-mer binding enrichment) (E-score (-0.5 to 0.5)); higher = stronger / more preferred TF binding). Settings: protein concentration: 200 nM; construct: GST-full length.
T1 sequence: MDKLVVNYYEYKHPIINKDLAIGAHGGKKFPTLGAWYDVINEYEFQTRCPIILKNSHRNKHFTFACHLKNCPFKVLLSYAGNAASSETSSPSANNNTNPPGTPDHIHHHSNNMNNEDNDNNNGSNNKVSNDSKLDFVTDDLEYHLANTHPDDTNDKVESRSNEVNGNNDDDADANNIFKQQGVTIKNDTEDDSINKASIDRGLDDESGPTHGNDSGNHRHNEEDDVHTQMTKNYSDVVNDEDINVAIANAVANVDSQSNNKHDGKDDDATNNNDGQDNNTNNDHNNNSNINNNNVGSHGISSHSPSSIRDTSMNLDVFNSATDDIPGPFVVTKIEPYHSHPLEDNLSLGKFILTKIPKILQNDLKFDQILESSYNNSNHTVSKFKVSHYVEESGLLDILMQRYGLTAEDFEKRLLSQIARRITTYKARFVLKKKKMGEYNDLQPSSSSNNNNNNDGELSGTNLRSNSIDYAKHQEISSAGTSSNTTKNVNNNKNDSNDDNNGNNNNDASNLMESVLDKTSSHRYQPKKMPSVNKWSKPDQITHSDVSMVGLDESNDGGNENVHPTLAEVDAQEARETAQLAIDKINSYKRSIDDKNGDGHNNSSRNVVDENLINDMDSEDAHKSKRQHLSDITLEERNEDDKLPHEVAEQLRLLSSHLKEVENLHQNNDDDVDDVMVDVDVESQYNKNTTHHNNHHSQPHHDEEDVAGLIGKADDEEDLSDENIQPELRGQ
Summary of the method: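 Full-length yeast transcription factors or their DNA-binding domains, GST-tagged and expressed with PURExpress, were applied at about 100-200 nM to universal all-10-mer Agilent arrays. These arrays had been made double-stranded by primer extension on fresh or once-stripped slides. Detection used fluorescent anti-GST, normalisation used masliner, and E-scores for ungapped eight-base words pooled with reverse complements came from the Universal PBM Analysis Suite.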

Row | Sequence | PBM E-score
1 | CGATTTTC | 0.155
2 | AGATCTGA | -0.0836
3 | TCTGTACA | -0.0409
4 | CCTAGTCC | -0.188
5 | GTCGCTCA | 0.191
6 | AAGGCGGG | -0.114
7 | CTCAGCCC | -0.0568
8 | CATTCTCC | 0.0969
9 | AGCTACGA | 0.029
10 | TCCATCCA | -0.0497
11 | TCCTTCAA | -0.0723
12 | ACGATGTG | 0.196
13 | AGAGCTAA | -0.156
14 | ACGAAGAG | 0.214
15 | ACCCAACA | -0.101
16 | CTTGATTC | -0.121
17 | CCGGATGC | -0.165
18 | AAGGAGAA | -0.198
19 | ATAGTTGA | 0.0299
20 | ATACTCTG | 0.0248
21 | CTAGTAAG | -0.0501
22 | CTTGAGTA | -0.00562

Row | Sequence | PBM E-score
23 | ACAGAAGG | -0.131
24 | ATCTAATC | 0.163
25 | AGATCATC | 0.273
26 | CAGGCAGC | -0.177
27 | ACGCTACT | -0.0355
28 | ATTTATAA | 0.176
29 | CGGCACAC | 0.173
30 | ACAGCCTG | 0.0129
31 | CATGATGG | -0.191
32 | CATATTGC | -0.108
33 | CATCGGCC | -0.154
34 | AGGTAGCC | -0.097
35 | GAAGCAGC | -0.147
36 | ATGCAAGC | -0.0371
37 | AAGTAGTG | 0.132
38 | ATTGTTGA | 0.14
39 | ATAACACA | 0.0628
40 | TATCTAGA | 0.0211
41 | CTGGCAAC | -0.238
42 | AGTCAGAA | 0.0706
43 | AGTTAGAC | 0.079
44 | ATAGATCA | 0.267

Row | Sequence | PBM E-score
45 | GGTAGCAA | -0.111
46 | GTTTATTA | 0.0803
47 | ACATCCAA | -0.0391
48 | GTCCTCCA | 0.0381
49 | ACGGCACA | 0.143
50 | AACGGACT | -0.0919
51 | CCTAGGAG | -0.121
52 | TAATAGTA | 0.187
53 | ATCGGAAG | -0.112
54 | GGGCGGAA | -0.21
55 | GGATGAAC | 0.122
56 | CCGATCAA | -0.129
57 | ACCAAGCG | -0.25
58 | GTCGGCCA | -0.147
59 | CCCTAAAA | -0.176
60 | CCAATTAG | -0.018
61 | ATGGGACC | -0.0822
62 | CCCCCCAC | -0.361
63 | TACATGTA | 0.0309
64 | CCAGACTA | -0.0283
65 | CTCGGGAA | 0.0853
66 | CTAGCGCA | -0.317

Row | Sequence | PBM E-score
67 | AGTAACAC | 0.013
68 | CACATTTC | 0.0894
69 | GGTGCCTA | -0.164
70 | CAATACAA | -0.162
71 | CAGAGCTA | -0.25
72 | AAAAGATT | 0.0144
73 | CGCACAAG | -0.154
74 | CTCAGTGC | -0.256
75 | CGGGTACG | -0.0332
76 | CTTAGCCA | 0.0975
77 | CATAACTA | 0.0945
78 | GAGGAGAA | -0.108
79 | CAGGGAGC | -0.191
80 | AACAAACC | 0.0194
81 | AACCGACT | -0.117
82 | CGACTGCA | 0.0303
83 | ACAGATGC | -0.0305
84 | AGTGACTA | 0.324
85 | CCTCATAC | -0.00761
86 | TCAGTAAA | 0.0086
87 | CTCAAGAC | -0.0817
88 | ACCTATAG | -0.176

Row | Sequence | PBM E-score
89 | AGGCCATG | -0.191
90 | GCAAAAAC | 0.0419
91 | CATCTCCC | -0.0258
92 | CTCACCCC | -0.0665
93 | GTTAACTA | 0.122
94 | CGCCGCGA | 0.0127
95 | CGTCCCAA | 0.252
96 | CAGTTCAG | -0.126
97 | AAAATTAC | 0.0976
98 | ATGAAAAT | 0.148
99 | ATGGCCAC | -0.203
100 | TAAGAGGA | -0.136
101 | GTTGAAAA | 0.194
102 | AAGGCGAG | -0.0978
103 | CCGTCTAA | 0.266
104 | CTGTAAGA | -0.0346
105 | GTATGCAA | 0.0172
106 | ATAAACAT | 0.145
107 | GAATTGGC | -0.16
108 | CTGAAGAA | -0.224
109 | CTCACCAC | -0.0754
